Assay results reported in publication PMC7814726, “Phytochemical constituents and biological activities of Salvia macrosiphon Boiss” (BMC Chemistry, 2021).
Values after ≈ are worked out from the molar mass of the structure shown.

Assays:
[1] = test system: Staphylococcus aureus ATCC 6538P; test: Antibacterial MIC, broth micro-dilution, S. aureus; assay type: cell-based; conditions: ampicillin standard, 24 h at 37 °C
Experimental: (§1) In vitro antibacterial activity of all fractions was assessed against gram-positive and negative bacteria (Staphylococcus aureus ATCC 6538P and Escherichia coli ATCC 8739). Minimum inhibitory concentration (MIC) was determined by broth micro-dilution method. Serial dilutions of fractions and antimicrobial agents were prepared in 96-well plates by using (Mueller-Hinton Broth) MHB, and was made in a concentration ranging from 0.125 to 64 mg/mL Mueller-Hinton Broth (MHB) medium. The standard saline solution was prepared to get inoculants turbidity solution equal to 0.5 McFarland standards. The inoculants of the microbial strains were prepared from 20 h bacterial culture that were adjusted to 0.5 McFarland standard turbidity and were further diluted (1:100) using MHB medium just before adding to the serially diluted samples. The plates were incubated for 24 h at 37 °C and MIC values were recorded as the lowest concentrations which could inhibit visible growth of microorganisms. Each experiment was done in triplicate. The ampicillin was used as the standard antibacterial agent.

[2] = test system: Escherichia coli ATCC 8739; test: Antibacterial MIC, broth micro-dilution, E. coli; assay type: cell-based; conditions: ATCC8739, ampicillin standard, 24 h at 37 °C
Experimental: as §1

MIC ([1]; Staphylococcus aureus, ATCC6538P): 0.5 mg/L (≈ 1.43 µM)
MIC S. aureus [1]: 0.50 mg/L (≈ 1.43 µM)
MIC [2]: 0.12 mg/L (≈ 0.343 µM)
SMILES: CC1(C)S[C@@H]2[C@H](NC(=O)[C@H](N)c3ccccc3)C(=O)N2[C@H]1C(=O)O [Ampicillin]
